Test results reported in publication PMC7176290.

Target: T1, Flag-Rab5c (zebrafish) (UniProt Q7ZVP2)
T1 sequence: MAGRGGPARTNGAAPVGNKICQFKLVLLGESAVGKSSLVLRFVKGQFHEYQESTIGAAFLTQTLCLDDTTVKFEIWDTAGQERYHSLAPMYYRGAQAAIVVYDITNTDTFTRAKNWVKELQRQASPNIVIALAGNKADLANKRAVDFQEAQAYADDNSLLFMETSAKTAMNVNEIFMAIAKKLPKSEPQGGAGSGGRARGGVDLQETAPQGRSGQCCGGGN
Assay: co-IP; 293T cells co-transfected with flag-tagged rab5c and myc-tagged appl1; lysate in IP lysis buffer (50 mM Tris-HCl pH 7.4, 150 mM NaCl, 1 mM EDTA, 0.5 mM DTT, 0.5% NP-40, 5% glycerol) incubated with anti-FLAG M2 Affinity Gel for 4 hours at 4°C; western blot with anti-Flag and anti-Myc

binding: binds
Substance: Appl1-Myc

These are yes or no findings as the source states them, for the method shown. Binding seen in cells or lysates may run through a third protein. A result given as binding can be weak or reduced; the word gives no strength. Sequences can lack the tags named with a protein.
